Measurements reported in article doi:10.1101/2024.11.26.625369.
No constants are given. Whether binding was seen depends on the method and setting. Binding seen in cells or lysates may run through a third protein. Some entries that bind do so weakly or less than the wild type.

Amino acid sequences for entries named in this document (tags omitted).
UniProt Q8N201: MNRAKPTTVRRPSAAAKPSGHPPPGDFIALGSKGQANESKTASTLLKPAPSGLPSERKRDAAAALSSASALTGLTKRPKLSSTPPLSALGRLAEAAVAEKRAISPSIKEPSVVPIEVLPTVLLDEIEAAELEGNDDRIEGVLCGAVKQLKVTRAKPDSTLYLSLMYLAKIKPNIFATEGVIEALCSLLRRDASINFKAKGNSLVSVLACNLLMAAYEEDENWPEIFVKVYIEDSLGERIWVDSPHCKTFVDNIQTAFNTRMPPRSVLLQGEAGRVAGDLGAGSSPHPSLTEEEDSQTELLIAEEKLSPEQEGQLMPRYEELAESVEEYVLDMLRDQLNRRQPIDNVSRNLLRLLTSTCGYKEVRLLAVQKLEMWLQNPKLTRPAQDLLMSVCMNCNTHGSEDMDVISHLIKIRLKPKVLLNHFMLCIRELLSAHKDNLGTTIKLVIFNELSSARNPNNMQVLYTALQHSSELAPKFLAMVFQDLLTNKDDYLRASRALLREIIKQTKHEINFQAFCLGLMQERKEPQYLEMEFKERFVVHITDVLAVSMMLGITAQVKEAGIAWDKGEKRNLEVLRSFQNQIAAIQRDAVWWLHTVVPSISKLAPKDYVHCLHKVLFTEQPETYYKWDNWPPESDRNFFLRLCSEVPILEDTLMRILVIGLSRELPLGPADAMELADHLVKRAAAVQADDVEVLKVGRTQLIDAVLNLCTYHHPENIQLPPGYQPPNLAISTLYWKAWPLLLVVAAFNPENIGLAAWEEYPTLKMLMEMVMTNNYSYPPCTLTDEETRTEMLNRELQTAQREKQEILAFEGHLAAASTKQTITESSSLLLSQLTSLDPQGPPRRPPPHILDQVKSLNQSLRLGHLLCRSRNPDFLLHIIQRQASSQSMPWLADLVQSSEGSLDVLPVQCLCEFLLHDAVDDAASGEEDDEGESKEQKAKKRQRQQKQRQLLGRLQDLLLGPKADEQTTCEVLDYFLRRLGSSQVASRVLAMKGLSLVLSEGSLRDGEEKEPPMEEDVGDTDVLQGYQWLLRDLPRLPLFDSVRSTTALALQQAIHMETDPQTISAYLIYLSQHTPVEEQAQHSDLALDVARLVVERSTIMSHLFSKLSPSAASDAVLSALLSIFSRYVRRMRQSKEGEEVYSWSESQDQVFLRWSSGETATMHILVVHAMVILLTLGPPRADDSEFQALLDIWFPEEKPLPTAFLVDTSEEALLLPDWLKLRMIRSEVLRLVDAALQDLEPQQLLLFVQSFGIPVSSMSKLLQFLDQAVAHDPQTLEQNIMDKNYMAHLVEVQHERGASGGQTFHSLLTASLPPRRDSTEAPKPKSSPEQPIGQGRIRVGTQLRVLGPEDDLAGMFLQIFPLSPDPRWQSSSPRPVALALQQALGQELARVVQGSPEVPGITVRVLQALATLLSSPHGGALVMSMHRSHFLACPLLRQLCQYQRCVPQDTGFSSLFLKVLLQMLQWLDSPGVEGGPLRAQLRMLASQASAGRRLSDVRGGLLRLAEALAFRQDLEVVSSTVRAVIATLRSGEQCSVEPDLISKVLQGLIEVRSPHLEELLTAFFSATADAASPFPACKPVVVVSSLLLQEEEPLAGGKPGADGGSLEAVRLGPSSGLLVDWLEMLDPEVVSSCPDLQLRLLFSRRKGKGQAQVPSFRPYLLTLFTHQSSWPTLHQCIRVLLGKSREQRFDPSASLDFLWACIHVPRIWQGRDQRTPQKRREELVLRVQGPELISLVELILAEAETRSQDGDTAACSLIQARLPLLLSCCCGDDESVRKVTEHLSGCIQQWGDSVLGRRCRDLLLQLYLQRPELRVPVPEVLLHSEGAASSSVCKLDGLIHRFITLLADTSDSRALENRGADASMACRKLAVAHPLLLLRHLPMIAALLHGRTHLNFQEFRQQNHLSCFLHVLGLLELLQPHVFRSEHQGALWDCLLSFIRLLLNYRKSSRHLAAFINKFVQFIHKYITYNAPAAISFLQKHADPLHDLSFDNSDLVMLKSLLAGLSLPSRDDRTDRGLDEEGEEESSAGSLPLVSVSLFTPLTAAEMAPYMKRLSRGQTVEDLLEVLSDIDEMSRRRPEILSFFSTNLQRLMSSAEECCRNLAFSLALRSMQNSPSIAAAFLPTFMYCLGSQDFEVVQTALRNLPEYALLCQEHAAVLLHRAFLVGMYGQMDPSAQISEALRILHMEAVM
UniProt Q75QN2: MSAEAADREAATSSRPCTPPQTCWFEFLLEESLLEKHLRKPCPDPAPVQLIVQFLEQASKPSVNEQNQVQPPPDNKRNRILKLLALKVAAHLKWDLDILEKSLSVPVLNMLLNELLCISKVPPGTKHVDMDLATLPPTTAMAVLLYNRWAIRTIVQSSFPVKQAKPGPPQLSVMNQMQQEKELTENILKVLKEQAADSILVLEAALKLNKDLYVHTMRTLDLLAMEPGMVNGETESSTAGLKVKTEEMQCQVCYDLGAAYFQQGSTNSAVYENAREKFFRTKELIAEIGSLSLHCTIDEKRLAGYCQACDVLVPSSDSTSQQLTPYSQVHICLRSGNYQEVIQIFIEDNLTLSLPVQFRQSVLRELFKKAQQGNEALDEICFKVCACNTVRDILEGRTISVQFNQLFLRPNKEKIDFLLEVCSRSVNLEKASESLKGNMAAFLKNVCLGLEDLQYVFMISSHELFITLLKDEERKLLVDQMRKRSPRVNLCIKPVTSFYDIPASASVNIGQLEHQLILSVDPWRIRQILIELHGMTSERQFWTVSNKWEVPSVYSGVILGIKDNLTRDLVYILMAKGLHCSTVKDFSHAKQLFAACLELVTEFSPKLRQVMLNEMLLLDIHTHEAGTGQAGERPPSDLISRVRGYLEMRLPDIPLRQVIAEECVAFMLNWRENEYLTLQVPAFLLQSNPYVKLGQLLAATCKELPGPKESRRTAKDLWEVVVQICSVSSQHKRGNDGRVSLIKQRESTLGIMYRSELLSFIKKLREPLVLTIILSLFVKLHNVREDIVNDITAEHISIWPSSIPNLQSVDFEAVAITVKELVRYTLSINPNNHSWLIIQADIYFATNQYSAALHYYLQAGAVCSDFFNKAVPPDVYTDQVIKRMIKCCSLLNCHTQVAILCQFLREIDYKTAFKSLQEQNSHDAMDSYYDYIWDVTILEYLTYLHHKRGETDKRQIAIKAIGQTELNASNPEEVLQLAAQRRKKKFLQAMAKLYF
UniProt Q96HW7: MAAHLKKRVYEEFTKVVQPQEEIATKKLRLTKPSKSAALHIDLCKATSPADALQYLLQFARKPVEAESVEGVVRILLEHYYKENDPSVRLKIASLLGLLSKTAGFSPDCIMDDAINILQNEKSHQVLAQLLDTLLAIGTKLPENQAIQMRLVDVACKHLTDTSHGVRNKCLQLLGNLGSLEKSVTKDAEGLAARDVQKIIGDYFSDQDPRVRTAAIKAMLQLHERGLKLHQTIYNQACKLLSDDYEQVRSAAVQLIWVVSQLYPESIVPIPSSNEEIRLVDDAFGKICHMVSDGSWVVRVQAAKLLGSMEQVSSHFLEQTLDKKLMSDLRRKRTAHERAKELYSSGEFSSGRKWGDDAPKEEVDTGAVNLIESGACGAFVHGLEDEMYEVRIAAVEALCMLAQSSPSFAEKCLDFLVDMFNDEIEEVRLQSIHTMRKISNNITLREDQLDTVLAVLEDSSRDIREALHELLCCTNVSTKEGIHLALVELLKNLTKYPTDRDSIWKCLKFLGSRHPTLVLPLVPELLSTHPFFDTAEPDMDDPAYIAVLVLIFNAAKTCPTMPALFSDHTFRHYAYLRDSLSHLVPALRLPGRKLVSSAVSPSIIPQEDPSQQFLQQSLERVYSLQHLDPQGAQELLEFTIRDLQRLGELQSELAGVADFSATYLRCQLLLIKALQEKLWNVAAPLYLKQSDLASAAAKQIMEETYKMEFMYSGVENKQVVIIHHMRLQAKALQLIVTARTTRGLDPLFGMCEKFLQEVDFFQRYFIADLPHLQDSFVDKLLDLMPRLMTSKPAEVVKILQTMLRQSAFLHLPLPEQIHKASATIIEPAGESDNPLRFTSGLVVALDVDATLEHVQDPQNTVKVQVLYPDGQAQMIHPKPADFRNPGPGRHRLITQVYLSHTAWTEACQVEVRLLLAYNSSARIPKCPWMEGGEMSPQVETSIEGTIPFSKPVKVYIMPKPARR

Target: Integrator subunit INTS1 (human (endogenous in H9 hESC-derived NPCs)) (UniProt Q8N201)
Assay: co-IP

binding | Substance
binds | Integrator subunit 8 (INTS8) (from UniProt Q75QN2 1-995)
binds | Integrator subunit INTS4 (from UniProt Q96HW7 1-963)
